Assays:
[1] = system: rat intestine (jejunum, ileum and colon); conditions: male, Wistar, in vivo, 30 min, 10 μM
Description: The in situ rat intestinal closed loop method was carried out as described previously. Male Wistar rats (7–8 weeks old; 250 ± 20 g body weight) were fasted overnight and anesthetized by intraperitoneal injection of a triple anesthetic combination (medetomidine, midazolam and butorphanol). The abdominal cavity was opened and an intestinal loop (jejunum, 10 cm; ileum, 10 cm; colon, 7 cm) was made by cannulation into both ends of the jejunum, ileum and colon with silicone tubing (i.d., 3 mm). The intestinal contents were washed out through the cannulas with saline. […] One mL of test compound solution (10 μM) was introduced into the intestinal loop and both ends of the loop were ligated. […] The volume of luminal water (mL) in each segment of intestine was calculated using the following equation: 1 Vwater=Xout/Cout where Vwater (mL) is the water volume in each segment of intestine, Cout is the luminal concentration of test compound (μM), and Xout is the amount of test compound (μmol). The fraction absorbed of test compound was calculated from the remaining amount of test compound in each intestinal loop. Final results were normalized to the surface area calculated from the radius and length of each segment of intestine. […]

[2] = in vivo; conditions: male, Wistar, rat, po, 1 mg/kg; for AUC(0-inf) / AUC(0-t) / Cmax / Tmax: plasma; for AUC(0-inf): AUC0-∞; for AUC(0-t): AUC0–7, rat
Text: An Agilent Eclitse plus (C18, 50 × 2.1 mm, 5 μm) was used as the analytical column. […] Analyst software version 1.4.2 (AB SCIEX) was used for data manipulation.

[3] = oral ingestion of apple juice; cited from earlier work
[4] = oral 1 mg/kg (0.25 mg/mL) in hyperosmotic solution (10% NaCl)
[5] = oral 1 mg/kg (0.25 mg/mL) in purified water

CC(C)NCC(O)COc1ccc(CC(N)=O)cc1 (centres unmarked) [atenolol]
fraction absorbed [1]: 30.8% ± 1.2
AUC0–7 with hyperosmotic solution, decreased to % of purified water ([2]; in vivo): 42.0%
AUC(0-inf) [2, 4]: 0.0929 ± 0.0276 µg·h/mL
AUC(0-inf) [2, 5]: 0.231 ± 0.011 µg·h/mL
AUC(0-t) [2, 4]: 0.089 ± 0.0254 µg·h/mL
AUC(0-t) [2, 5]: 0.212 ± 0.011 µg·h/mL
Cmax [2, 4]: 0.0376 ± 0.0092 µg/mL
Cmax [2, 5]: 0.0684 ± 0.0047 µg/mL
Tmax [2, 4]: 1.92 ± 0.08 h
Tmax [2, 5]: 2.3 ± 0.3 h
absorption of atenolol coadministered with apple juice [3]: decreased absorption

— publication PMC8408929, “Influence of osmolality on gastrointestinal fluid volume and drug absorption: potential impact on oral salt supplementation” (Journal of Pharmaceutical Health Care and Sciences, 2021)
